Article PMC12515809
No constants are given. Whether binding was seen depends on the method and setting. Binding seen in cells or lysates may run through a third protein. Some entries that bind do so weakly or less than the wild type.

Sequences of proteins named here, by UniProt entry; tags and fusion partners are left off.
UniProt O97159: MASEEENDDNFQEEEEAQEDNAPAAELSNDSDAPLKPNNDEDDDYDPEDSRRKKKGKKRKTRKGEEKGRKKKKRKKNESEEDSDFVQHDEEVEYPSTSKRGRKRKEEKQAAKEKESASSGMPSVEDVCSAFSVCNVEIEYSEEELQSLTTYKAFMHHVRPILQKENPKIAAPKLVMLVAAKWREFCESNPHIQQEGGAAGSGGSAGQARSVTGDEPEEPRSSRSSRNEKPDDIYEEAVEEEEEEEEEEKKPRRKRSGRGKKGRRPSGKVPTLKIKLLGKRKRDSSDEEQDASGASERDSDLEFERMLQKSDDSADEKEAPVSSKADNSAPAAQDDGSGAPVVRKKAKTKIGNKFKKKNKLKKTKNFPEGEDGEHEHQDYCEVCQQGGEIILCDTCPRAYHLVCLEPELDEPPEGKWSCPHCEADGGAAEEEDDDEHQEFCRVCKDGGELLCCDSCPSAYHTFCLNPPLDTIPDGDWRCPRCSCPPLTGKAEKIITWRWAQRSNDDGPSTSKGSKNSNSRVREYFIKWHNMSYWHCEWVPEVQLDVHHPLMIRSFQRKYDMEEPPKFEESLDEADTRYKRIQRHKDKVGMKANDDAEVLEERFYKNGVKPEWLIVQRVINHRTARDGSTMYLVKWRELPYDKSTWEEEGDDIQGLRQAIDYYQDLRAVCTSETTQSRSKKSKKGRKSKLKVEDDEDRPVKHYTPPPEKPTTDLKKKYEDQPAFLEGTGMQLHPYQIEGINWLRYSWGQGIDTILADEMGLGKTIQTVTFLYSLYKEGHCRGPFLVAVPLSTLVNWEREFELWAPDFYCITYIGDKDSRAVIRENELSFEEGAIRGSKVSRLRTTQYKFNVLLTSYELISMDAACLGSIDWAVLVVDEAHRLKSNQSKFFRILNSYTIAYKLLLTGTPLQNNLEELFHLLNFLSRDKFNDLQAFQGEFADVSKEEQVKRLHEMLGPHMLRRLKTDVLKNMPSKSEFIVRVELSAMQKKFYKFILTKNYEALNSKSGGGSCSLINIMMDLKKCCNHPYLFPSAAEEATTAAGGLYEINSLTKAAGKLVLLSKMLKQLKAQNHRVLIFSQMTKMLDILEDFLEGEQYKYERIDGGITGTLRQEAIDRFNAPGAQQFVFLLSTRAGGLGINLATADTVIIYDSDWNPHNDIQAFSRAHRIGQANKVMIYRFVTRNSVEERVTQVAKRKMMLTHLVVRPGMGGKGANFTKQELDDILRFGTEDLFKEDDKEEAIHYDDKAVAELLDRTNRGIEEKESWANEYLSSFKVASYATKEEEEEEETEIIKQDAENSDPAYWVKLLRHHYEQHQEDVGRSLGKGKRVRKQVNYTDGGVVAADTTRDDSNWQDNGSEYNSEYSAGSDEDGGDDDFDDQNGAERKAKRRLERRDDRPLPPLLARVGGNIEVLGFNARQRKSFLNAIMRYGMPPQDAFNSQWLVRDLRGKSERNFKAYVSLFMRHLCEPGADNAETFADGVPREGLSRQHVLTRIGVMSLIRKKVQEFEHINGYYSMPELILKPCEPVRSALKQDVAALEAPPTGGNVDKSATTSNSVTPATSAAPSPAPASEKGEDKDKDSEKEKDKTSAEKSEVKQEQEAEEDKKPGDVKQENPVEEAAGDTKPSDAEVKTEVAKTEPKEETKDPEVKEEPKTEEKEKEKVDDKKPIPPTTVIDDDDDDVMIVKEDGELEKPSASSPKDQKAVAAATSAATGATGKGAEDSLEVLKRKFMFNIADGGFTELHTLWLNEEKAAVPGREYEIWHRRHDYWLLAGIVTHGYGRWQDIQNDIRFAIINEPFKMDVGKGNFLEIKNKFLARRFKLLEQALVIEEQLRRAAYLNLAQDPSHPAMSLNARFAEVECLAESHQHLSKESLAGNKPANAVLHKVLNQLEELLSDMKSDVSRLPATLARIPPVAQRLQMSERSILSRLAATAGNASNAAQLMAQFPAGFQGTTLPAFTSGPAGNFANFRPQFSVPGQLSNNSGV
UniProt Q95V55: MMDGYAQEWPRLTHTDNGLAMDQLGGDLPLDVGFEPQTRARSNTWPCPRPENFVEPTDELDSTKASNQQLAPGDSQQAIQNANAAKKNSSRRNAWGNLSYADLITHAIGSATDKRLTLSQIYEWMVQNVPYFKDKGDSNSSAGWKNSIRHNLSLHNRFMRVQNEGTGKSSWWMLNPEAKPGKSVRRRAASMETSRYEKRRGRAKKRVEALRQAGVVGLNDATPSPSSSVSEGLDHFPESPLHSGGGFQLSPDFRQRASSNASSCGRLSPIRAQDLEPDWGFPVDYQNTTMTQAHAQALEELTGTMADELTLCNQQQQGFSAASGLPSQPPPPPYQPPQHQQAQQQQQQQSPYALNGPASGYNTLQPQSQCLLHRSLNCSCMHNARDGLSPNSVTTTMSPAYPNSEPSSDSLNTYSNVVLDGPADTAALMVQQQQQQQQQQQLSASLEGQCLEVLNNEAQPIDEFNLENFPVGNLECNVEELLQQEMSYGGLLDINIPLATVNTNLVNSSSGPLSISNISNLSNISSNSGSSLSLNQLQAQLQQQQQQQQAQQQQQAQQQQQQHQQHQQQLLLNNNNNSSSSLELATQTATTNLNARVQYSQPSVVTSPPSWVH

What was measured:
[1] = molecular target: Flag-tagged Mi-2 (Drosophila melanogaster) (UniProt O97159); test: co-IP; S2 cells co-transfected with Flag-Mi-2 and Myc-Foxo, lysed after 48 h (150 mM NaCl, 50 mM Tris-HCl pH 7.5, 10% glycerol, 0.5% Triton X-100); anti-Flag beads at 4°C overnight; washes with 500 mM NaCl; blots for Flag and Myc
[2] = molecular target: endogenous Mi-2 (Drosophila melanogaster (endogenous in fat body of w1118 flies)) (UniProt O97159); test: co-IP; lysate of fat body tissue dissected from w1118 flies; immunoprecipitation with anti-Mi-2 antibodies and agarose beads at 4°C overnight, rat IgG as control; washes with 500 mM NaCl; Western blot

binding [1]	binding [2]	Substance
binds	–	Myc-tagged Foxo (from UniProt Q95V55 1-613)
–	binds	endogenous Foxo (fat body) (from UniProt Q95V55 1-613)
